This test concerns the target T1, MBP-TRPY1-C (cytosolic C terminus of TRPY1 fused to maltose-binding protein) (S. cerevisiae) (UniProt Q12324).
T1 sequence: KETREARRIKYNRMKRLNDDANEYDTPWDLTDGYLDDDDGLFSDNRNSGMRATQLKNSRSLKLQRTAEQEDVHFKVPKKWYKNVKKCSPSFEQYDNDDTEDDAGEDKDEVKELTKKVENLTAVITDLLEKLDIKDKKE
Kind of test: pull-down; MBP-fused TRPY1 fragments (12 ug) immobilised on amylose resin, incubated with 12 ug GST-Cmd1 or GST-Cmd1–6 with 2 mM Ca2+, 60 min, 4 °C; bound protein detected by anti-GST blot; both purified.

By UniProt entry, the sequences of proteins in these tests, tags left out. Where a name states a change or a piece, a line headed by the entry shows the natural chain unless it says otherwise.
UniProt P06787: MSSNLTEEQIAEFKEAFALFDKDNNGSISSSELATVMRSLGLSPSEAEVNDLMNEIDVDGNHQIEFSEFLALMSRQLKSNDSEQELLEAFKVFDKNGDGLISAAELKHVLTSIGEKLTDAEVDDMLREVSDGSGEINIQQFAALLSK

No constants are given. Whether binding was seen depends on the method and setting. Tags and fused reporters may be left off the sequences shown.

Consider “GST-Cmd1–6 (non-Ca2+-binding yeast calmodulin mutant fused to GST) (from UniProt P06787)”, for which the binding result is “no binding”.

Values taken from PMC8449268, “Activity of the yeast vacuolar TRP channel TRPY1 is inhibited by Ca^2+–calmodulin binding” (The Journal of Biological Chemistry, 2021).
